# Data: PubChem BioAssay AID1332 (Southern Research Institute, 2008)
# The list shows a part of the results. Further columns of the screen follow, without active or inactive calls.
# Test: Confirmatory growth inhibition assay, mycobacterium tuberculosis h37rv, with cytotoxicity (AID 1332);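 as to CC50: Vero cells exposed to compounds for 72 hours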;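 as to IC50: bacteria incubated 7 days before adding Alamar blue readout reagent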
# Settings: M. tuberculosis H37Rv growth inhibition; CC50: measured here: Vero cell cytotoxicity; IC50: measured here: IC50 H37Rv replicates
SMILES,IC50 [µg/mL],CC50 [µg/mL]
C[C@@H]1NCCc2cc(O)c(O)cc21,> 20,–
Cc1cc(=O)oc2cc(O)ccc12,> 20,–
CCC1(CC)C(=O)C=CNC1=O,> 20,–
COc1cc(C(=O)OC2C[C@H]3CC[C@@H](C2)N3C)ccc1O (some centres undefined),> 20,–
CCOC(=O)OC(C)OC(=O)[C@@H]1N2C(=O)[C@@H](NC(=O)[C@H](N)c3ccccc3)[C@H]2SC1(C)C (some centres undefined),> 20,–
NCCCC[C@H](N[C@@H](CCc1ccccc1)C(=O)O)C(=O)N1CCC[C@H]1C(=O)O,> 20,–
CC(C)(C)NC[C@H](O)COc1nsnc1N1CCOCC1,> 20,–
C1CCN2C[C@@H]3C[C@@H](CN4CCCC[C@@H]34)[C@H]2C1,> 20,–
COc1ccc2c(OC)c3ccoc3nc2c1OC,> 20,–
CC1CC(OC(=O)C(O)c2ccccc2)CC(C)(C)N1C (centres undefined),> 20,–
Cc1nnc(NS(=O)(=O)c2ccc(N)cc2)s1,2.29,–
C[C@@H]1O[C@@H](O[C@H]2C[C@@H](O)[C@]3(CO)[C@H]4[C@H](O)C[C@]5(C)[C@@H](C6=CC(=O)OC6)CC[C@]5(O)[C@@H]4CC[C@]3(O)C2)[C@H](O)[C@H](O)[C@H]1O,> 20,0.092
O=C(O)COC(=O)Cc1ccccc1Nc1c(Cl)cccc1Cl,> 20,–
CC[C@H]1CN2CCC1C[C@H]2[C@H](O)c1ccnc2ccc(OC)cc12 (some centres undefined),> 20,–
COc1ccc2c3c([nH]c2c1)C(C)=NCC3,> 20,–
CCCN1CCC[C@@H]2Cc3[nH]ncc3C[C@H]21,> 10,–
CCn1nc(C(=O)O)c(=O)c2cc3c(cc21)OCO3,> 20,–
CCCCNc1ccc(C(=O)OCCOCCOCCOCCOCCOCCOCCOCCOCCOC)cc1,> 20,–
O=C(O)/C=C/c1ccc(Cn2ccnc2)cc1,> 20,–
CCC1=C(C)CN(C(=O)NCCc2ccc(S(=O)(=O)NC(=O)NC3CCC(C)CC3)cc2)C1=O (centres undefined),> 20,–
CC1/C=C/C=C/CC/C=C/C=C/C=C/C=C/C(O[C@@H]2O[C@H](C)[C@@H](O)[C@H](N)[C@@H]2O)CC(O)C(C(=O)O)C(O)CC(=O)CC(O)C(O)CCC(O)CC(O)CC(O)CC(=O)OC(C)C(C)C1O (some centres undefined),> 20,–
Oc1ccc(OCc2ccccc2)cc1,> 20,2.71
C[C@H]1C[C@H]2[C@@H]3CCC4=CC(=O)C=C[C@]4(C)[C@@]3(F)[C@@H](O)C[C@]2(C)[C@@]1(O)C(=O)CO,> 20,–
Cc1ccc(Cl)c(Nc2ccccc2C(=O)O)c1Cl,> 20,–
COC(=O)Nc1nc2ccc(SC(C)C)cc2[nH]1,> 20,> 6
CCN1CCN(C(=O)N[C@@H](C(=O)N[C@@H]2C(=O)N3C(C(=O)O)=C(CSc4nnnn4C)CS[C@H]23)c2ccc(O)cc2)C(=O)C1=O,> 20,–

# 12 structures already listed, arranged by SMILES length, ascending:
SMILES,IC50 [µg/mL],CC50 [µg/mL]
Oc1ccc(OCc2ccccc2)cc1,> 20,2.71
C[C@@H]1NCCc2cc(O)c(O)cc21,> 20,–
O=C(O)/C=C/c1ccc(Cn2ccnc2)cc1,> 20,–
COc1ccc2c3c([nH]c2c1)C(C)=NCC3,> 20,–
Cc1ccc(Cl)c(Nc2ccccc2C(=O)O)c1Cl,> 20,–
CCCN1CCC[C@@H]2Cc3[nH]ncc3C[C@H]21,> 10,–
CCn1nc(C(=O)O)c(=O)c2cc3c(cc21)OCO3,> 20,–
O=C(O)COC(=O)Cc1ccccc1Nc1c(Cl)cccc1Cl,> 20,–
CC[C@H]1CN2CCC1C[C@H]2[C@H](O)c1ccnc2ccc(OC)cc12 (some centres undefined),> 20,–
CCOC(=O)OC(C)OC(=O)[C@@H]1N2C(=O)[C@@H](NC(=O)[C@H](N)c3ccccc3)[C@H]2SC1(C)C (some centres undefined),> 20,–
CCN1CCN(C(=O)N[C@@H](C(=O)N[C@@H]2C(=O)N3C(C(=O)O)=C(CSc4nnnn4C)CS[C@H]23)c2ccc(O)cc2)C(=O)C1=O,> 20,–
C[C@@H]1O[C@@H](O[C@H]2C[C@@H](O)[C@]3(CO)[C@H]4[C@H](O)C[C@]5(C)[C@@H](C6=CC(=O)OC6)CC[C@]5(O)[C@@H]4CC[C@]3(O)C2)[C@H](O)[C@H](O)[C@H]1O,> 20,0.092

# Going on with the list.

SMILES,IC50 [µg/mL],CC50 [µg/mL]
CN(C)C(=O)Oc1cc(OC(=O)N(C)C)cc(C(O)CNC(C)(C)C)c1 (centres undefined),> 20,–
C[C@]12CC[C@H](O)C[C@@H]1CC[C@@H]1[C@@H]2CC[C@]2(C)C(=O)CC[C@@H]12,> 20,–
O=C1CC2(CCCC2)CC(=O)N1CCCCN1CCN(c2ncccn2)CC1,> 20,–
CCC1(c2ccc(N)cc2)CCC(=O)NC1=O (centres undefined),> 20,–
COc1ccc2cc(C(C)C(=O)O)ccc2c1 (centres undefined),> 20,–
O=C(NCC(O)CO)c1c(I)c(C(=O)NCC(O)CO)c(I)c(N(CCO)C(=O)CO)c1I (centres undefined),> 20,–
CO/N=C(\C(=O)N[C@@H]1C(=O)N2C(C(=O)O)=C(COC(N)=O)CS[C@H]12)c1ccco1,> 20,–
C[C@@H](N)[C@@H](O)c1ccccc1,> 20,–
Nc1ccc(S(=O)(=O)Nc2ccnn2-c2ccccc2)cc1,3.12,–
CC1Cc2ccccc2N1NC(=O)c1ccc(Cl)c(S(N)(=O)=O)c1 (centres undefined),> 20,–
O=[N+]([O-])c1cc([As](=O)(O)O)ccc1O,> 20,–
c1ccc([C@H]2CN3CCSC3=N2)cc1,> 20,–
CN(C)CC/C=C1\c2ccccc2Sc2ccc(Cl)cc21,2.53,> 6
O=C1OCCN1/N=C/c1ccc([N+](=O)[O-])o1,4.8,> 6
COc1ccc(C2CNC(=O)C2)cc1OC1CCCC1 (centres undefined),> 20,–
C[C@H]1C[C@@H]2[C@H]([C@@H](O)C[C@@]3(C)[C@H]2CC[C@]3(O)C(=O)CO)[C@@]2(C)C=CC(=O)C=C12,> 20,–
CCCNCC(O)COc1ccccc1C(=O)CCc1ccccc1 (centres undefined),> 20,–
COc1cc([C@@H]2c3cc4c(cc3[C@@H](O[C@@H]3O[C@@H]5CO[C@@H](C)O[C@H]5[C@H](O)[C@H]3O)[C@H]3COC(=O)[C@H]23)OCO4)cc(OC)c1O,> 20,> 6
Nc1nc2n[nH]nc2c(=O)[nH]1,> 20,0.704
CN(C)c1nc(N(C)C)nc(N(C)C)n1,> 20,–
CC(C)NCC(O)c1ccc2ccccc2c1 (centres undefined),> 20,–
COc1ccc(C(=O)OC2C[C@H]3CC[C@H](C2)N3C)cc1OC (some centres undefined),> 20,–
CC(NCCC(c1ccccc1)c1ccccc1)c1ccccc1 (centres undefined),4.25,> 6
CC[C@]12CCCN3CCc4c(n(c5ccccc45)[C@](O)(C(=O)OC)C1)[C@@H]32,> 20,–
CC[C@@H](C)C(=O)O[C@H]1[C@H](O)[C@H]2[C@@H](CN3C[C@@H](C)CC[C@H]3[C@@]2(C)O)C2C[C@]34O[C@@]5(O)[C@@H](OC(=O)[C@](C)(O)CC)CC[C@@]3(C)[C@@H]5[C@@H](OC(C)=O)[C@@H](OC(C)=O)[C@H]4[C@@]21O (some centres undefined),> 20,–
